Patent publication US20060025342A1 (OSTEOTROPHIN, published 2006)
Results are given in words; binding and its absence hold for the method and conditions named. Some results given as binding are weak or reduced against the parent protein; the word gives no strength.

T1: human PTH/PTHrP receptor (PTH1 receptor) (human, UniProt Q03431 27-593)
T1 sequence (looked up): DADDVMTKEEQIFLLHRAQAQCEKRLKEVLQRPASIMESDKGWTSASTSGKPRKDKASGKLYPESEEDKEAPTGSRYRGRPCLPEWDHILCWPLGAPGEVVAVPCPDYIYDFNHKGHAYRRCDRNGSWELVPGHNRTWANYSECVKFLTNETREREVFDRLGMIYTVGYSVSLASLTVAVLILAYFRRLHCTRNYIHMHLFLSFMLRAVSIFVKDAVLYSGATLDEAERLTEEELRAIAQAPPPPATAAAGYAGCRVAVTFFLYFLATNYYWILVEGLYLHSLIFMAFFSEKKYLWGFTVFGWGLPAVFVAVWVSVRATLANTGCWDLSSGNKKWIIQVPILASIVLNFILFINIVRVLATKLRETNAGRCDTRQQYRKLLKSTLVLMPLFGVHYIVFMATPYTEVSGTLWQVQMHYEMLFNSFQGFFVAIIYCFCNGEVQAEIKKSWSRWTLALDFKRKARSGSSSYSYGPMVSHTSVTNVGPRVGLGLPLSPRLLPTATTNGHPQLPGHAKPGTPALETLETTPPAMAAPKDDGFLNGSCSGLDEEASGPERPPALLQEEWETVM

T2: canine renal PTH/PTHrP receptor (canine, UniProt Q9TU31 29-595)
T2 sequence (looked up): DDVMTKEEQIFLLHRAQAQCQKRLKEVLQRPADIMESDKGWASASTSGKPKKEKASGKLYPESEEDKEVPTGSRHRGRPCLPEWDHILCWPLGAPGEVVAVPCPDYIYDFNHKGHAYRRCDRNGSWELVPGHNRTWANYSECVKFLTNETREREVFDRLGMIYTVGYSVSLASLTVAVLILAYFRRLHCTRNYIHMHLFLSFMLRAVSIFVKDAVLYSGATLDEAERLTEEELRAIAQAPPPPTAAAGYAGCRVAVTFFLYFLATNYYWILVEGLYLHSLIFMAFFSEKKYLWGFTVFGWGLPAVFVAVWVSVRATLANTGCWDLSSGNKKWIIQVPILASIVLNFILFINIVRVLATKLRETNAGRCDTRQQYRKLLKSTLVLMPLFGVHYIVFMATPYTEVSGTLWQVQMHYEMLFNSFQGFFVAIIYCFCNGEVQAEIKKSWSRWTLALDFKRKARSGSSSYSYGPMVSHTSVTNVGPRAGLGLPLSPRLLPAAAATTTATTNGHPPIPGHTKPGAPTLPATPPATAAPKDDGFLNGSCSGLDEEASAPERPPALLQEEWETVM


How the values were obtained:
[1] = biological target: T1, human PTH/PTHrP receptor (PTH1 receptor); test: competition of 125I-(Tyr36)hPTHrP-(1-36)NH2 binding, human RCM, SaOS-2 membranes, intact SaOS-2 cells
[2] = biological target: T1, human PTH/PTHrP receptor (PTH1 receptor); test: competition binding, human RCM and SaOS-2 membranes
[3] = biological target: T2, canine renal PTH/PTHrP receptor; test: competition of 125I-[Tyr36]PTHrP-(1-36)amide binding, canine renal cortical membranes, 20 C
Description: Binding assays were conducted in siliconized 12×75 mm borosilicate glass test tubes at 20° C. in a final volume of 0.2 ml. […] Binding was initiated by adding 50 μg membrane. At the end of the incubation periods described, 50 μl triplicate aliquots were layered onto 300 μl of iced binding buffer containing 1.0% BSA in 500 μl polypropylene tubes. The tubes were centrifuged at approximately 16,000×g for three min at 4° C. in a microcentrifuge. The supernatant was aspirated and the tip of the tube containing the membrane-associated radioligand was cut off. Radioactivity in both the pellet and supernatant was measured.
Dissociation constants (Kd) were determined by Scatchard analysis of the data obtained from competitive binding experiments using radioligand and increasing concentrations of unlabeled ligand. […] Statistical differences were assessed by paired Student's t test. […] Significance was determined using a partial F-test.

[4] = biological target: T2, canine renal PTH/PTHrP receptor; test: competition binding with both radioligands, canine renal cortical membranes

| binding [1] | binding [2] | binding [3] | binding [4] | Binder |
| --- | --- | --- | --- | --- |
| binds | binds | – | – | SVSEIQLMHNLGKHLNSMERVEWLRKKLQDVHNY (norleucine (Nle) at 8 and 18 in place of Met) [(Nle^8,18, Tyr^34)hPTH-(1-34)] |
| – | – | binds | binds | SVSEIQLMHNLGKHLNSMERVEWLRKKLQDVHNY (norleucine (Nle) at 8 and 18 in place of Met; C-terminal amide) [[Nle^8,18,Tyr^34]hPTH-(1-34)amide] |
